Construct, isoform or probe ends are uncertain for at least one entry. For some of these results: A negative result means that nothing was seen under these conditions. At least one verdict was read from the data and is not stated in words by the source. Tags and fusion partners may be left off the protein sequences shown.
What was measured:
Assay in all cases: EMSA
[1] = molecular target: T1, AtPAP2-HIS (Arabidopsis) (UniProt Q9ZTC3); conditions: not stated (EMSA as described by Xie et al. [40]); recombinant protein; protein details: His
T1 sequence (looked up, limits assumed): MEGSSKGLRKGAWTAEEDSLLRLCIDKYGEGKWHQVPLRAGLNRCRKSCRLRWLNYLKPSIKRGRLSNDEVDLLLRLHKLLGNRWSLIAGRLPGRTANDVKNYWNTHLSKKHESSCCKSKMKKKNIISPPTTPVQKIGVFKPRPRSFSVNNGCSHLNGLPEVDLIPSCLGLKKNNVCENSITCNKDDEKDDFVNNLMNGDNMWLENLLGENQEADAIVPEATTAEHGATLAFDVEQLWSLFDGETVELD

[2] = molecular target: T2, MdMYB10-HIS (also printed MdMYB1-HIS) (UniProt E2RZU2); conditions: not stated (EMSA as described by Xie et al. [40]); recombinant protein; protein details: His (pET32a)
T2 sequence (looked up, limits assumed): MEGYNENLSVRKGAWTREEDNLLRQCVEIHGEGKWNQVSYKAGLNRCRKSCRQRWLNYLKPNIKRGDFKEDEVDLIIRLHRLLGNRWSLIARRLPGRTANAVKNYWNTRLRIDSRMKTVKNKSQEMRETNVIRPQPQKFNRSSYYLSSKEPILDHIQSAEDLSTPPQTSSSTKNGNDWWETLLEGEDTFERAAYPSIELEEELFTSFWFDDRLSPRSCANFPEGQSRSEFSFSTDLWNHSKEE

[3] = molecular target: T3, AtPAP1-HIS (Arabidopsis) (UniProt Q9FE25); conditions: not stated (EMSA as described by Xie et al. [40]); recombinant protein; protein details: His
T3 sequence (looked up, limits assumed): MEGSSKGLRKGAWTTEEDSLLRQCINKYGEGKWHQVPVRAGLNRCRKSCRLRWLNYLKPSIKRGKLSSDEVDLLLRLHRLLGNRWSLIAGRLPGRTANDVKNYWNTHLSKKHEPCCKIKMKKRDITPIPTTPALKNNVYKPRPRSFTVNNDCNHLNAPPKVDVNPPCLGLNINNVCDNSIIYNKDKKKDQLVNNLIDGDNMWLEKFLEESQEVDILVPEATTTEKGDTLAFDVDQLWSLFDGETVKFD

Row | Sequence | binding result [1] | binding result [2] | binding result [3]
1 | AGAATAGACTTGATAACTCGCAGTTGATAATGCCTCATGGTACAA (double strand) [AtNRT2.4(MBS-III)] | binds |  | 
2 | ACCTCACCGACACAGACACCGGTCACGCAGGCACCGCTGCATTCC (double strand) [MdNRT2.5-2(MBS-1)] |  | no binding | 
3 | TGAAATTAAGAAAACAAGAGCAGTTGCAACCTTCCCAAAAGAAAAA (double strand) [MdNRT2.7-2(MBS-1)] |  | no binding | 
4 | GGTTTTTATTTGTGAAGGTACAACTGTTATTGCTGTTACAATCTT (double strand) [AtNRT2.4(MBS-I)] | binds |  | binds
5 | AAAATCAATCACGCTAAGATCAGTTGATAACGTACTTGAGTGGCC (double strand) [MdNRT2.5-2(MBS-2)] |  | no binding | 
6 | TGTGTGGATAACCGAATATATAACTGTGATGAGTACAAGCAAAAGA (double strand) [MdNRT2.7-2(MBS-2)] |  | no binding | 

— PMC9016894, “MdMYB10 affects nitrogen uptake and reallocation by regulating the nitrate transporter MdNRT2.4-1 in red-fleshed apple”
